At least one compound was matched to its structure with a doubt left.
Assays:
[1] = test system: A431 cells; assay: VB-48 assay: vitality, viability and necrosis of treatments 1-10 (Table 3); format: cell-based
Procedure: Briefly, A431 cells were labeled with respective probes for specific treatments (listed below); cells were rinsed and evaluated for labeling. The test include the following treatments: […], treatments 3-4 of EGF-IRDye® 700DX at 0.5 μM and radiation, treatments 5-6 of IRDye® 700DX NHSe at 5 μM and radiation, treatments 7-8 of panitumumab-IRDye® 700DX at about 0.1 μM and radiation, treatment 9 of a negative control with no probe and no irradiation, and treatment 10 of RGD-IRDye® 700DX and no irradiation. The probes were incubated for about 10 minutes and with a longer period of about 20 minutes for the RGD probe. The cells were monitored with microscopy and morphology was examination 24 hours post treatment.
Low binding was expected for the RGD probe due to the low level of integrin receptors on A431 cells. […] By 3 hours post-irradiation all treatments except RGD (Treatment 1) show significant cytotoxicity. Vitality, viability and necrosis assays such as a VB-48 assay and JC-1 assay were performed.

[2] = test system: HTB-186 cells; assay: Viability, cell number and microscopy morphology at 20 h post irradiation (Example 10); format: cell-based; conditions: 32 J/cm^2, probe about 5 hours, 700DX-RGD and 700DX-EGF 500 nM
Procedure: This example illustrates the ability of IRDye® 700DX small molecule conjugates to induce apoptosis in cells, e.g., cancer cells. In this study HTB-186 cells (a desmoplastic cerebellar medulloblastoma cell line) were treated with IRDye® 700DX small molecule conjugates (IRDye® 700DX labeled chlorotoxin, anti-EGFR Affibody®, RGD peptide and EGF ligand). Apoptosis was measured by evaluating caspase 3/7 activity and mitochondrial membrane potential. Apoptosis can be characterized by a variety of cell morphological and biochemical changes including membrane blebbing, cell shrinkage, alteration of membrane asymmetry and permeability, and/or condensation of chromatin and nucleus (Coleman et al., Nat Cell Biol, 2001, 3(4):339-45, Bortner and Cidlowski, Biochem Pharmacol, 1998, 56(12):1549-59; van Engeland et al., Experimental Cell Research, 1997, 235:421-430).
Microscopy images of cells in petri-dishes were captured at 20 h post irradiation. The images were captured in DIC and 700 nm to visualize the probe, and composite images were generated (DIC+700 nm) to visualize the overlay.
To determine whether the treated cells are undergoing apoptosis, a caspase 3/7 assay and mitochondrial potential assay were performed. […] Table 8 below provides cells number, % viability, JC-1% shift, and % late apoptotic and dead cells as determined by caspase 3/7 assay.

For C[Si](C)(CCC[N+](CCCS(=O)(=O)O)(CCCS(=O)(=O)O)CCCS(=O)(=O)O)O[Si-2]123(O[Si](C)(C)CCC[N+](CCCS(=O)(=O)O)(CCCS(=O)(=O)O)CCCS(=O)(=O)O)n4c5c6ccccc6c4N=C4c6cccc(OCCCOC(=O)NCCCCCC(=O)NCCCC[C@@H]7NC(=O)[C@@H](Cc8ccccc8)NC(=O)[C@H](CC(=O)O)NC(=O)CNC(=O)[C@H](CCCNC(=N)N)NC7=O)c6C(=[N+]41)N=c1c4ccccc4c(n12)=NC1=[N+]3C(=N5)c2ccccc21 [RGD-700DX], the “Est % Viability” value ([1]; irradiated (I) 32 J/cm^2, RGD 0.5 μM, EGF 0.5 μM, NHSe 5 μM, Pan ~0.1 μM) was 90-100%, the “Est % Viability” value ([1]; no irradiation (NI), RGD-700DX 0.5 μM) was 90-100% and the “% Viability” value [2] was 69.1%.

Reference: patent US10588972B2, “Phthalocyanine probes and uses thereof” (LI-COR, INC., priority 2014, dated 2020)
